Source: PubChem BioAssay AID248 (DTP/NCI, 2004)
The list does not hold the whole screen: it gathers tests that were run many times, whatever their T/C, doses with no T/C, and many T/C values between a quarter and a half above the control. Other doses and runs of a compound stand elsewhere. T/C is the treated group as % of the vehicle group. Some doses have a count of surviving animals in place of a T/C: the source files T/C as zero there, which appears to mark a toxic dose or a test without result, not a measured value. Some survivor counts are full or nearly so, which does not show that the dose was tolerated: the source hardly ever lists a survival T/C far under the control, and the zero likely stands for such cases as well. Counts of survivors are from the toxicity check (mostly the fifth day) where no day follows; animals may have died later. Schedule codes are those of the source, read here as Q, the interval in days (D) or hours (H), X, the number of doses. Some schedule codes hold Z or #, which are not explained here. Where survival is the endpoint, this PubChem deposit counts one and a half times the control or more as active, and values a quarter to a half above the control carry no call in these data; other NCI protocols may use other cut-offs. Some T/C values are followed by the survivors on the day toxicity was checked, most often the fifth; without a count, all were alive then.

Test system: L1210 leukemia ip in BDF1 mice, survival T/C
Assay: NCI In Vivo Anticancer Drug Screen. Data for tumor model L1210 Leukemia (intraperitoneal) in B6D2F1 (BDF1) mice
Details: T/C endpoint: mean survival time, higher T/C = longer survival
[1] = dose: 100.0 mg/kg/injection, schedule: Q01DX009 (ip), vehicle: Klucel (hydroxypropylcellulose) (HPC)
[2] = dose: 200.0 mg/kg/injection, schedule: Q01DX009 (ip), vehicle: Klucel (hydroxypropylcellulose) (HPC)
[3] = dose: 400.0 mg/kg/injection, schedule: Q01DX009 (ip), vehicle: Klucel (hydroxypropylcellulose) (HPC)
[4] = dose: 40.0 mg/kg/injection, schedule: Q01DX001 (ip), vehicle: saline
[5] = dose: 400.0 mg/kg/injection, schedule: Q01DX001 (ip), vehicle: saline
[6] = dose: 100.0 mg/kg/injection, schedule: Q01DX001 (ip), vehicle: saline with Tween-80
[7] = dose: 200.0 mg/kg/injection, schedule: Q01DX001 (ip), vehicle: saline with Tween-80
[8] = dose: 400.0 mg/kg/injection, schedule: Q01DX001 (ip), vehicle: saline with Tween-80

For `CCCCCCCCCCCCCCCCCCNCCC#N`, the survivor count [1] was 6 of 6, the survivor count [2] was 4 of 6 and the survivor count [3] was 4 of 6.
`CC12NC(=O)NC1(C)NC(=O)N2` (stereo not drawn) was tested, and the survivor count (dose: 400.0 mg/kg/injection, schedule: Q01DX009 (ip), vehicle: saline) was 1 of 6.
In the case of `CC(C)(C)OC(=O)NC(CSC(c1ccccc1)(c1ccccc1)c1ccccc1)C(=O)NC(Cc1ccccc1)C(=O)NCC(=O)O` (stereo not drawn), the survivor count (dose: 300.0 mg/kg/injection, schedule: Q01DX001 (ip), vehicle: saline) is reported as 3 of 6.
With `COc1ccc(OC)c(/C=C(\C#N)c2ccc([N+](=O)[O-])cc2)c1` the survivor count (dose: 16.6 mg/kg/injection, schedule: Q01DX009 (ip), vehicle: saline with Tween-80) was 6 of 6, the survivor count (dose: 25.0 mg/kg/injection, schedule: Q01DX009 (ip), vehicle: saline with Tween-80) was 6 of 6 and the survivor count (dose: 37.5 mg/kg/injection, schedule: Q01DX009 (ip), vehicle: saline with Tween-80) was 6 of 6.
For `O=C1C=C(Nc2ccc([N+](=O)[O-])cc2)C(=O)c2ccccc21`, the survivor count (dose: 150.0 mg/kg/injection, schedule: Q01DX001 (ip), vehicle: carboxymethylcellulose (CMC)) was 6 of 6.
`CCOC(=O)C1CCc2ccccc2CC1` was tested, and the survivor count (dose: 400.0 mg/kg/injection, schedule: Q04DX003 (ip), vehicle: acetone) was 0 of 6.
In the case of `CCCCCOc1ccc(C=Nc2ccc(C)cc2)cc1`, the survivor count [3] is reported as 1 of 6.
`c1nc(N2CC2)c2cnn(C3CCCCO3)c2n1` (stereo not drawn) was tested, and the survivor count (dose: 400.0 mg/kg/injection, schedule: Q04DX003 (ip), vehicle: saline) was 2 of 6.
For `CCCCCCCCCCCC[n+]1cccc(C)c1`, the survivor count (dose: 10.0 mg/kg/injection, schedule: Q01DX001 (ip), vehicle: saline) was 2 of 4, the survivor count (dose: 20.0 mg/kg/injection, schedule: Q01DX001 (ip), vehicle: saline) was 2 of 4 and the survivor count [4] was 0 of 4. The survivor count (dose: 50.0 mg/kg/injection, schedule: Q01DX001 (ip), vehicle: saline) was 0 of 4, the survivor count (dose: 80.0 mg/kg/injection, schedule: Q01DX001 (ip), vehicle: saline) was 0 of 4 and the survivor count (dose: 100.0 mg/kg/injection, schedule: Q01DX001 (ip), vehicle: saline) was 0 of 4. The survivor count (dose: 200.0 mg/kg/injection, schedule: Q01DX001 (ip), vehicle: saline) was 0 of 4 and the survivor count [5] was 0 of 4.
`CN(CCO)CC1COc2ccccc2O1` (stereo not drawn) was tested, and the survivor count [5] was 0 of 4.
In the case of `CCOC(Cl)CCl` (stereo not drawn), the survivor count [6] is reported as 0 of 6, the survivor count [7] is reported as 0 of 6 and the survivor count [8] is reported as 0 of 6.
For `CN[C@H]1CCc2cc(OC)c(OC)c(OC)c2-c2ccc(OC)c(=O)cc21`, the T/C (dose: 4.0 mg/kg/injection, schedule: Q03HX008 (ip), vehicle: saline) was 129 % of control, the T/C (dose: 8.0 mg/kg/injection, schedule: Q01DX009 (ip), vehicle: saline) was 137 % of control and the T/C (dose: 8.0 mg/kg/injection, schedule: Q## X024 (ip), vehicle: saline) was 143 % of control. The survivor count (dose: 16.0 mg/kg/injection, schedule: Q01DX004 (oral), vehicle: saline) was 6 of 10, the T/C (dose: 16.0 mg/kg/injection, schedule: Q01DX009 (ip), vehicle: saline) was 139 % of control and the survivor count (dose: 16.0 mg/kg/injection, schedule: Q03HX008 (ip), vehicle: saline) was 1 of 10. The T/C (dose: 16.0 mg/kg/injection, schedule: Q## X008 (ip), vehicle: saline) was 135 % of control [8 of 10 alive], the survivor count (dose: 18.0 mg/kg/injection, schedule: Q01DX001 (ip), vehicle: saline) was 2 of 4 and the T/C (dose: 20.0 mg/kg/injection, schedule: Q01DX009 (ip), vehicle: saline) was 142 % of control [4 of 6 alive]. The survivor count (dose: 26.0 mg/kg/injection, schedule: Q01DX001 (ip), vehicle: saline) was 2 of 4, the T/C (dose: 30.0 mg/kg/injection, schedule: Q01DX009 (ip), vehicle: saline) was 141 % of control and the T/C (dose: 32.0 mg/kg/injection, schedule: Q01DX004 (ip), vehicle: saline) was 136 % of control. The survivor count (dose: 32.0 mg/kg/injection, schedule: Q01DX009 (oral), vehicle: saline) was 1 of 10, the T/C (dose: 32.0 mg/kg/injection, schedule: Q## X008 (ip), vehicle: saline) was 134 % of control [9 of 10 alive] and the survivor count (dose: 32.0 mg/kg/injection, schedule: Q## X024 (ip), vehicle: saline) was 0 of 10. The survivor count [4] was 1 of 4, the survivor count (dose: 60.0 mg/kg/injection, schedule: Q01DX001 (ip), vehicle: saline) was 0 of 4 and the survivor count (dose: 64.0 mg/kg/injection, schedule: Q01DX001 (oral), vehicle: saline) was 6 of 10. The survivor count (dose: 64.0 mg/kg/injection, schedule: Q01DX009 (ip), vehicle: saline) was 4 of 10, the survivor count (dose: 64.0 mg/kg/injection, schedule: Q01DX009 (oral), vehicle: saline) was 0 of 10 and the T/C (dose: 64.0 mg/kg/injection, schedule: Q## X002 (ip), vehicle: saline) was 134 % of control. The T/C (dose: 64.0 mg/kg/injection, schedule: Q## X003 (ip), vehicle: saline) was 147 % of control, the survivor count (dose: 64.0 mg/kg/injection, schedule: Q## X008 (ip), vehicle: saline) was 6 of 10 and the survivor count (dose: 64.0 mg/kg/injection, schedule: Q## X024 (ip), vehicle: saline) was 0 of 10. The survivor count (dose: 128.0 mg/kg/injection, schedule: Q01DX001 (oral), vehicle: saline) was 2 of 10, the survivor count (dose: 128.0 mg/kg/injection, schedule: Q01DX009 (oral), vehicle: saline) was 0 of 10 and the survivor count (dose: 256.0 mg/kg/injection, schedule: Q01DX001 (oral), vehicle: saline) was 2 of 10. The survivor count (dose: 256.0 mg/kg/injection, schedule: Q01DX009 (oral), vehicle: saline) was 0 of 10.
`CNC(=S)N/N=C(/C)CCc1c(C)nn(C(=S)NC)c1C` was tested, and the survivor count (dose: 100.0 mg/kg/injection, schedule: Q01DX001 (ip), vehicle: carboxymethylcellulose (CMC)) was 0 of 4, the survivor count (dose: 200.0 mg/kg/injection, schedule: Q01DX001 (ip), vehicle: carboxymethylcellulose (CMC)) was 0 of 4 and the survivor count (dose: 400.0 mg/kg/injection, schedule: Q01DX001 (ip), vehicle: carboxymethylcellulose (CMC)) was 0 of 4.
In the case of `Cc1ccc(C(=O)/C(Cl)=N/O)cc1`, the survivor count (dose: 200.0 mg/kg/injection, schedule: Q01DX001 (ip), vehicle: other) is reported as 2 of 4 and the survivor count (dose: 400.0 mg/kg/injection, schedule: Q01DX001 (ip), vehicle: other) is reported as 0 of 4.
In the case of `CC(/C=C\C1CCCCC1)=C\C=C\C(C)=C\C=N\Nc1ccc([N+](=O)[O-])cc1[N+](=O)[O-]`, the survivor count (dose: 12.5 mg/kg/injection, schedule: Q01DX001 (ip), vehicle: saline with Tween-80) is reported as 3 of 3, the survivor count (dose: 25.0 mg/kg/injection, schedule: Q01DX001 (ip), vehicle: saline with Tween-80) is reported as 3 of 3 and the survivor count [6] is reported as 3 of 3. The survivor count [7] was 3 of 3 and the survivor count [8] was 3 of 3.
For `CCCCC(C=NCC(CCCC)(CCN(C)C)c1cccc2ccccc12)(CCN(C)C)c1cccc2ccccc12` (stereo not drawn), the survivor count [1] was 0 of 6, the survivor count [2] was 0 of 6 and the survivor count [3] was 0 of 6.
With `CC(C)(C)C(=O)OCn1cnc2c(=N)n(O)cnc21` the survivor count (dose: 400.0 mg/kg/injection, schedule: Q04DX003 (ip), vehicle: Klucel (hydroxypropylcellulose) (HPC)) was 6 of 6.
`O=C(Oc1ccc(S(=O)(=O)F)cc1F)c1ccccc1Cl` was tested, and the survivor count (dose: 400.0 mg/kg/injection, schedule: Q04DX002 (ip), vehicle: Klucel (hydroxypropylcellulose) (HPC)) was 3 of 3.
With `COC(=O)NC1CC(O)C(CO)C1` (stereo not drawn) the survivor count [2] was 3 of 3.
